Reference: paper PMC8000391

Target: T1, endothelial nitric oxide synthase (eNOS) (human (endogenous in primary human endothelial cells)) (UniProt P29474)
T1 sequence: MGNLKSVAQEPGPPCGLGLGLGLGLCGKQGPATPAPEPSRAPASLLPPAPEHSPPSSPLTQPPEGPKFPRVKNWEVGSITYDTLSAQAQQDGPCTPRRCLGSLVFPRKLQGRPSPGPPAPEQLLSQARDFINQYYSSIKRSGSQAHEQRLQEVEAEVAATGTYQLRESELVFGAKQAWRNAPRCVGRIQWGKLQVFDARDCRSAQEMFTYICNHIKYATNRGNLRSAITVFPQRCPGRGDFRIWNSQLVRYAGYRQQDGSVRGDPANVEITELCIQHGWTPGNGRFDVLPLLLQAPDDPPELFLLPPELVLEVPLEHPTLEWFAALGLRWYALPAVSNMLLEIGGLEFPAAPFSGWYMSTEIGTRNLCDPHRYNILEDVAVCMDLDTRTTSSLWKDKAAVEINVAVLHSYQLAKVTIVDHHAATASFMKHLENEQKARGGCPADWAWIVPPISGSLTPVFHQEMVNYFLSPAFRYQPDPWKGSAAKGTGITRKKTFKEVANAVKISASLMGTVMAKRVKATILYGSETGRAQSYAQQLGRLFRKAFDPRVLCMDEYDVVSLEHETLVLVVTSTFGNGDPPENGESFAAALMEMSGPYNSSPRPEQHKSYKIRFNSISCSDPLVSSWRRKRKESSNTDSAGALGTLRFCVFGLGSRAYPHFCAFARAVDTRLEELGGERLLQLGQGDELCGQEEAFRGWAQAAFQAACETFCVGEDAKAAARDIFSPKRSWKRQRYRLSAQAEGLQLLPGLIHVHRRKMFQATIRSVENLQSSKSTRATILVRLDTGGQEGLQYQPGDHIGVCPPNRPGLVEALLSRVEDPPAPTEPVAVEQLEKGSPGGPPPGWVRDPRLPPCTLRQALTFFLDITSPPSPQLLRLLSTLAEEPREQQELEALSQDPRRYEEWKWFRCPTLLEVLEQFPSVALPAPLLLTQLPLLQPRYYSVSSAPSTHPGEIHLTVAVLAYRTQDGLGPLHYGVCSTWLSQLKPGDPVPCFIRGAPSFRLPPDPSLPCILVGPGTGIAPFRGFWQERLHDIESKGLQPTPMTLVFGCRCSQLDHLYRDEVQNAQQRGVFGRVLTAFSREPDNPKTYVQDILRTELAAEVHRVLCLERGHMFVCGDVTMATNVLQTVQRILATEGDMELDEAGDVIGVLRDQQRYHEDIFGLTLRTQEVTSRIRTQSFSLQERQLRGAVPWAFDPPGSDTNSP
Test: proximity ligation; Duolink In Situ kit on fixed, permeabilised primary human EC 18 h after transfection (empty vector, GRHL3 FL or GRHL3 ΔbiNLS); primary antibodies against the myc-tag or Akt1 and against eNOS; controls omitting one antibody

binding: binds
Substance: human full-length Grainyhead-like 3 (GRHL3) isoform 2 with a C-terminal myc-tag

These are yes or no findings as the source states them, for the method shown. In cells and extracts the contact can be indirect. A result given as binding can be weak or reduced; the word gives no strength.
